The results in this text go back to the supplement of paper PMC10849652.

The chains behind the UniProt entries cited, without tags or fusion partners. Where a name states a change or a piece, a line headed by the entry shows the natural chain unless it says otherwise.
UniProt O95999: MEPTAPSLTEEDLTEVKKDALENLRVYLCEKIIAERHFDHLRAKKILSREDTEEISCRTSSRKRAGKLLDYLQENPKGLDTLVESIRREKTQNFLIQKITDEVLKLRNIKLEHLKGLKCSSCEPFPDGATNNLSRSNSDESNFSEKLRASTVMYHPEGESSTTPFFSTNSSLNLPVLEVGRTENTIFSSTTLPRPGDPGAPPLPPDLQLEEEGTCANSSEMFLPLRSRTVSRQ
UniProt Q9P281: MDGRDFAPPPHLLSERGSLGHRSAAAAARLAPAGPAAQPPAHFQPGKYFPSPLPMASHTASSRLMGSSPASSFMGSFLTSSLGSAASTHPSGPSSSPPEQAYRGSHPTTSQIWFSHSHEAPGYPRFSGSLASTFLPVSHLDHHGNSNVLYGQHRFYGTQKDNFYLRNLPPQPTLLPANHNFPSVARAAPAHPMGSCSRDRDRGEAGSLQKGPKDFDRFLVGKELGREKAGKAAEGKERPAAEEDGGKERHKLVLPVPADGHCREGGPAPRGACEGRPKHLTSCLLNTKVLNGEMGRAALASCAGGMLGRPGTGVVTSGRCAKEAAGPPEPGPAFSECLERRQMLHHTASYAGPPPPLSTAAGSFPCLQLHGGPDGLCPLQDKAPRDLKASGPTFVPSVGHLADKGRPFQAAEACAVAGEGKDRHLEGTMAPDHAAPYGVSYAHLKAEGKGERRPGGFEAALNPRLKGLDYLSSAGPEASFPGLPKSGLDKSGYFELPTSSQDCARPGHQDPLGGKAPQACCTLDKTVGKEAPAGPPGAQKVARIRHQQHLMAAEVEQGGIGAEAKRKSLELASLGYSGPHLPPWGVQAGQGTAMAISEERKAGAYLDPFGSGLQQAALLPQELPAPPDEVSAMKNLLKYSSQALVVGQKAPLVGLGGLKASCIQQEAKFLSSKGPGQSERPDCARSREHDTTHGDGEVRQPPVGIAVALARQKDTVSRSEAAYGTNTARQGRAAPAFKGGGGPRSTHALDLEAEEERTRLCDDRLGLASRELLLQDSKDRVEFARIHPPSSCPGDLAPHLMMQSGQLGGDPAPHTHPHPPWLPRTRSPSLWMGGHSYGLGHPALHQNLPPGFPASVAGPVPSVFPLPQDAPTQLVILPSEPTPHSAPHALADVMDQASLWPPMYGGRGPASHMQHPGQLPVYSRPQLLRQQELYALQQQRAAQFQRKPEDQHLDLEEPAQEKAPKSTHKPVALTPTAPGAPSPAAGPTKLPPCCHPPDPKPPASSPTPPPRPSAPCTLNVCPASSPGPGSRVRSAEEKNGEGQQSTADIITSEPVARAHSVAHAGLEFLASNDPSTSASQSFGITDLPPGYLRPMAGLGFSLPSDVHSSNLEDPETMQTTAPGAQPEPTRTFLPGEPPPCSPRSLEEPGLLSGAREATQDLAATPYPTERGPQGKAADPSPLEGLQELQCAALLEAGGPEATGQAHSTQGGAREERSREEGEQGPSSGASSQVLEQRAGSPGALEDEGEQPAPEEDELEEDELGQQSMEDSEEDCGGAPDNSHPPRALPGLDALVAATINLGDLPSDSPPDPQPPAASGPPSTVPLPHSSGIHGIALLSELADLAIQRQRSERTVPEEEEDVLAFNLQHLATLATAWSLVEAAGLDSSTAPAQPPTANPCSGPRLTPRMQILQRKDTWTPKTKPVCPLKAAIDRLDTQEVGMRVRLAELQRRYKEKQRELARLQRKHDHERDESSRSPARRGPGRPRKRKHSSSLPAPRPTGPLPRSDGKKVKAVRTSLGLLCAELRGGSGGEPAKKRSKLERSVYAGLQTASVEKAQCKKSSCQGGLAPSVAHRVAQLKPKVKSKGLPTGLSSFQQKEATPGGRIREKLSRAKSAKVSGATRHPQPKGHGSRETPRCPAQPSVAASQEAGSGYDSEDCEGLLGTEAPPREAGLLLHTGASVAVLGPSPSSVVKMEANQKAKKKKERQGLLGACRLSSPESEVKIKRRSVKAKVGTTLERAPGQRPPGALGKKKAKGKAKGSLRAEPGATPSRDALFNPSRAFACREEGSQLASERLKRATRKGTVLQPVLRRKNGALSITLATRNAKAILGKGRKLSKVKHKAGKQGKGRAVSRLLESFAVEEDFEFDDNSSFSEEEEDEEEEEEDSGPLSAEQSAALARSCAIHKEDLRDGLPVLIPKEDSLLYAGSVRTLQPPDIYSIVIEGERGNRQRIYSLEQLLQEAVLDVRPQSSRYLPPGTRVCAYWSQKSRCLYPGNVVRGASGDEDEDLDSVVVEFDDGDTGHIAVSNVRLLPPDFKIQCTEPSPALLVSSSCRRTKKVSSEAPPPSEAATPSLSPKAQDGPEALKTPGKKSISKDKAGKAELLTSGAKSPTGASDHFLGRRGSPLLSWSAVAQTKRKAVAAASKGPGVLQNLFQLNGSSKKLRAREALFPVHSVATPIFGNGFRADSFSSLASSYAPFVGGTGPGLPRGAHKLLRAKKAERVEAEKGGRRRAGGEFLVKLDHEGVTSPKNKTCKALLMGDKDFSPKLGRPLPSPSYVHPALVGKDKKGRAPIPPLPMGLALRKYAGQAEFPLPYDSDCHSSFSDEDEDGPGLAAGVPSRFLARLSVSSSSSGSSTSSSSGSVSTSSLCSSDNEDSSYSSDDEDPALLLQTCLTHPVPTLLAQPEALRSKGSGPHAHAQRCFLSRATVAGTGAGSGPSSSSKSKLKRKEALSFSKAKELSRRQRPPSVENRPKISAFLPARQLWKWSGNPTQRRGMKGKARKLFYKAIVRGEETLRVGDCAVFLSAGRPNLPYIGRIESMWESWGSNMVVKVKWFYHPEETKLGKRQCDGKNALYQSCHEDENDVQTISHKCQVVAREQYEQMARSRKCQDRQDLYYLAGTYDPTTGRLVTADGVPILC
UniProt Q99700, whole entry, looked up: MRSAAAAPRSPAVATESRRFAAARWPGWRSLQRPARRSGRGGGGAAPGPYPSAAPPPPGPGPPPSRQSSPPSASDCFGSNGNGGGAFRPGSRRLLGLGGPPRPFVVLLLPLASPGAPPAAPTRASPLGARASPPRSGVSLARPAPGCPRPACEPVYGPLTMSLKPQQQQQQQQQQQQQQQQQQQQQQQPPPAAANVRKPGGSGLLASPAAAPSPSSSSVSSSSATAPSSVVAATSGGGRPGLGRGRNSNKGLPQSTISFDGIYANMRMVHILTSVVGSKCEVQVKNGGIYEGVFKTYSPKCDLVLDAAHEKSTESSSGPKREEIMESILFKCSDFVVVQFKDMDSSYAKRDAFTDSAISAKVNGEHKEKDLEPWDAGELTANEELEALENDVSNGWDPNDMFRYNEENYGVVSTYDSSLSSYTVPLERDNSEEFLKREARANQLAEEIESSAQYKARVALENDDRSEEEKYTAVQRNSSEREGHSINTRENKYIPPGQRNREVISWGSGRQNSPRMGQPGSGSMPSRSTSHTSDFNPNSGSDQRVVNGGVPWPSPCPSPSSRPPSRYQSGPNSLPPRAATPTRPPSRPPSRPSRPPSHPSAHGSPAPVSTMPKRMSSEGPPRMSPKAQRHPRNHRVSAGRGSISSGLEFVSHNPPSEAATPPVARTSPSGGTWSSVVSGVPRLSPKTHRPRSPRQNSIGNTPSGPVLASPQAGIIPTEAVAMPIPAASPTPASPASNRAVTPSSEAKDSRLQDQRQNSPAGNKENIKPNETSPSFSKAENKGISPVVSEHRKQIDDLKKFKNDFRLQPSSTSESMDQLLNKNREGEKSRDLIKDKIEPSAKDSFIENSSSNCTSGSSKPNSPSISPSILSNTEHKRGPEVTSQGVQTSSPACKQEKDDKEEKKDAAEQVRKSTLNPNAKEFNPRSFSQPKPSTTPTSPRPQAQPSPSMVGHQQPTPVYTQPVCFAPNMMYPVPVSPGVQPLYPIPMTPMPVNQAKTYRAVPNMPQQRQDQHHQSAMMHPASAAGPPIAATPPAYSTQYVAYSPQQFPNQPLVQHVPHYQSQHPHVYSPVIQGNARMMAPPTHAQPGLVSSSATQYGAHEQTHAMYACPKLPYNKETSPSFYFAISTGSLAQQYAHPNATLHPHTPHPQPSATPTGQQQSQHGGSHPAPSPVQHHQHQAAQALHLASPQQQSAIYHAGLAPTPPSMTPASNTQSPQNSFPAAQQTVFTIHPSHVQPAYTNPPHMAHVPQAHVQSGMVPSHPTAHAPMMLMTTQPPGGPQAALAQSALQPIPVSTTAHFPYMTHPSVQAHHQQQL
UniProt P53004: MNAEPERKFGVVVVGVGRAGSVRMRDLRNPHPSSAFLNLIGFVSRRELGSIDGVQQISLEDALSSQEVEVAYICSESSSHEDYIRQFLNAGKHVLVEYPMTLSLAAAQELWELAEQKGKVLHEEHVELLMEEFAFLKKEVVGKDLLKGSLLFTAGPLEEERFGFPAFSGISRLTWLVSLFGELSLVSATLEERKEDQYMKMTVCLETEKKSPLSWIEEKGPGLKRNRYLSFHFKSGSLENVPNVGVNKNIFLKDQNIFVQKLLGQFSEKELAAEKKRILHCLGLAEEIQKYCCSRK
UniProt Q13867: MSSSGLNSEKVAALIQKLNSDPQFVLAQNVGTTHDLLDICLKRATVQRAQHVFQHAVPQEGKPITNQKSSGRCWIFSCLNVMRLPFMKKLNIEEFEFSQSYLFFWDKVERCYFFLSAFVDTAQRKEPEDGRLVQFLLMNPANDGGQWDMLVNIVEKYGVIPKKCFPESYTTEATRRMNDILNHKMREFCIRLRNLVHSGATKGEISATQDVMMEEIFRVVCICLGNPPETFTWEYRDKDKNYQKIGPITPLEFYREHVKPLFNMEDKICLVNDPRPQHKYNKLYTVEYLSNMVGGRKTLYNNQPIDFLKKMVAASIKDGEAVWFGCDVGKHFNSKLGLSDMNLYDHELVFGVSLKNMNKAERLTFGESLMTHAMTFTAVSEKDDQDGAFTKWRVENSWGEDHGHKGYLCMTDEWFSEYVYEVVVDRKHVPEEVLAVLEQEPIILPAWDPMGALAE
UniProt O60512: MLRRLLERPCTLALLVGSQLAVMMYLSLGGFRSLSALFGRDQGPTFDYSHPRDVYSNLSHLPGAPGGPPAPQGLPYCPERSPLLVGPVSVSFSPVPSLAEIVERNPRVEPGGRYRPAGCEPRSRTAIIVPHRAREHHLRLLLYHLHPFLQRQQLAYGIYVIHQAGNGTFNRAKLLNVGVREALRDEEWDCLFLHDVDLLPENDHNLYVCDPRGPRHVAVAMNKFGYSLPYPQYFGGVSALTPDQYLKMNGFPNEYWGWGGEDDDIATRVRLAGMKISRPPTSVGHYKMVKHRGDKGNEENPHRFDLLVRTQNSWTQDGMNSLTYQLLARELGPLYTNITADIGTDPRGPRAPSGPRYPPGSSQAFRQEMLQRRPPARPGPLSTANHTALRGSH
UniProt Q15059, whole entry, looked up: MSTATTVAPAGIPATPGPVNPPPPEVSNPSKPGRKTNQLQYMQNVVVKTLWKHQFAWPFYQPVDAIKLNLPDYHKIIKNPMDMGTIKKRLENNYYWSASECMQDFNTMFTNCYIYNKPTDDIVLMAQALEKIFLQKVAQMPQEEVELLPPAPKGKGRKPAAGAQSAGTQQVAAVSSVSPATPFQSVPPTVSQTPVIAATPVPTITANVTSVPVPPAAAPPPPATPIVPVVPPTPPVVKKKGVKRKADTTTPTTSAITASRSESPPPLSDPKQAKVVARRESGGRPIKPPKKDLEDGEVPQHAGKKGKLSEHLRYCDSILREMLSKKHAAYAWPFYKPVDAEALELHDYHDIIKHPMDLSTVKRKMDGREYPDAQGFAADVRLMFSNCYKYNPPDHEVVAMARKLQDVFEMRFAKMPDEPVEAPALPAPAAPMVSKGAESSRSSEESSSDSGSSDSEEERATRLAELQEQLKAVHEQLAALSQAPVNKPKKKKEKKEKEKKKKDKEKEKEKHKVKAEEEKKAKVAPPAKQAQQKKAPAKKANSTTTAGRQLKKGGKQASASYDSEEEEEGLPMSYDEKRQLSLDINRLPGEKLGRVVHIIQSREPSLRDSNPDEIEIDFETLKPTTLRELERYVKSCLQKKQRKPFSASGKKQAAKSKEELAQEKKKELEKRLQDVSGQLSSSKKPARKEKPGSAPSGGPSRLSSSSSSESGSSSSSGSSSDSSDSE
UniProt Q07812, whole entry, looked up: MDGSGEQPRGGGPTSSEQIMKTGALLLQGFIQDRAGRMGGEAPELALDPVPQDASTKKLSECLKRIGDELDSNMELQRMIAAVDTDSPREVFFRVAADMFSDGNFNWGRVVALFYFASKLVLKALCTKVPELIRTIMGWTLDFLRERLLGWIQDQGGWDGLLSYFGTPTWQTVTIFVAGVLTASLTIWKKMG
UniProt O95816: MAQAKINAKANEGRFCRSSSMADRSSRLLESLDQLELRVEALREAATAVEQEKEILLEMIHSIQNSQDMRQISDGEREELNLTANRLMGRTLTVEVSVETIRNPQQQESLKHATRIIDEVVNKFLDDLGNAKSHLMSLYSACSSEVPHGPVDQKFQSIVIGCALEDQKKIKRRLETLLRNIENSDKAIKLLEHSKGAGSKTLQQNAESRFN

Holding throughout (test): log2 fold change, soluble protein after heating vs DMSO (PISA); higher = thermal stabilisation; K562 cells, 10 uM, 30 min; active = over 0.2 and 3.5 SD of the protein, either way, in both replicates (recomputed)
Compound in assay [1]: NC(=O)Nc1cc(-c2cccc(F)c2)sc1C(=O)N[C@H]1CCCNC1
In short, it runs like this: (§1)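 K562 cells at 2×10^6 cells/mL were treated for 30 min with 10 μM compound, and aliquots were heated for 3 min over 48°C-58°C before pooling. Extraction used PBS with 0.5% NP-40 at 4°C, and soluble protein was the supernatant after 21,000xg for 90 min, measured by TMTpro 16plex LC-MS/MS with channel sums equalised. Thermal stability values, relative to control samples and from duplicates, are log2 fold changes.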

Compound in assay [2]: NC(=O)c1cnc(N[C@@H]2CCCC[C@@H]2N)nc1Nc1cccc(-n2nccn2)c1
In short, it runs like this: as §1

Compound in assay [3]: NC1(c2ccc(-c3nc4ccn5c(=O)[nH]nc5c4cc3-c3ccccc3)cc2)CCC1
The gist of the method: as §1

Compound in assay [4]: NCC(=O)Nc1ccc(-n2nc(C(F)(F)F)cc2-c2ccc3c(ccc4ccccc43)c2)cc1
The gist of the method: as §1

Compound in a further assay: Nc1ccccc1NC(=O)c1ccc(CNC(=O)OCc2cccnc2)cc1 [entinostat]
The gist of the method:
as §1

Compound in a further assay: O=C(CCCCCCC(=O)Nc1ccccc1)NO [vorinostat]
In short, it runs like this:
as §1

Compound in another assay: O=C(CCCCCCNC(=O)c1cnc(N(c2ccccc2)c2ccccc2Cl)nc1)NO [citarinostat]
The gist of the method: as §1

Compound in another assay: O=C(O)c1ccc2c(c1)nc(Nc1cccc(Cl)c1)c1ccncc12 [silmitasertib]
The gist of the method:
as §1

Compound in assay [5]: O=C1NC(=O)C(c2cnc3ccccn23)=C1c1cn2c3c(cc(F)cc13)CN(C(=O)N1CCCCC1)CC2
In short, it runs like this:
as §1

Compound in assay [6]: c1cc(OCCN2CCCCC2)cc(-c2n[nH]c3ccc(-c4nnc[nH]4)cc23)c1
In short, it runs like this:
as §1

Compound in the next assay: c1cn2cc(-c3ccc4cn[nH]c4c3)nc(Nc3ccc(N4CCOCC4)cc3)c2n1 [entospletinib]
The gist of the method:
as §1

The other results are listed elsewhere or left out.

On to BCL10 (UniProt O95999), for which the log2 fold change was inactive: 0.005 in assay [1]; inactive: -0.038 in assay [2]; inactive: -0.051 in [3]; inactive: -0.066 in assay [4]; inactive: 0.043 with entinostat; inactive: 0.04 with vorinostat. Besides, the log2 fold change is inactive: 0.145 with citarinostat; inactive: 0.025 in the assay with silmitasertib; inactive: -0.001 in assay [5]; inactive: -0.048 in assay [6]; inactive: -0.021 with entospletinib.
BAHCC1 (UniProt Q9P281): the log2 fold change in assay [1] is inactive: -0.271; in assay [2], inactive: -0.383; in assay [3], inactive: -0.3; in [4] it was inactive: -0.46; in the assay with entinostat, inactive: -0.088; in the assay with vorinostat, inactive: -0.044. The log2 fold change in the assay with citarinostat is inactive: -0.136; in the assay with silmitasertib it was inactive: 0.159; in assay [5] it was inactive: 0.026; in assay [6], inactive: -0.213; with entospletinib, inactive: 0.008.
As to ATXN2 (UniProt Q99700), the log2 fold change is inactive: -0.027 in assay [1]; inactive: 0.082 in assay [2]; inactive: -0.031 in assay [3]; inactive: -0.03 in [4]; inactive: -0.036 in the assay with entinostat; inactive: 0.036 with vorinostat. The log2 fold change in the assay with citarinostat is inactive: 0.005; with silmitasertib it was inactive: 0; in [5], inactive: -0.036; in [6], inactive: -0.097; in the assay with entospletinib, inactive: 0.04.
For the target BLVRA (UniProt P53004), the log2 fold change was inactive: 0 in [1]; inactive: -0.032 in [2]; inactive: -0.157 in [3]; inactive: -0.01 in [4]; inactive: -0.016 with entinostat; inactive: 0.028 with vorinostat. The log2 fold change with citarinostat is inactive: 0.021; in the assay with silmitasertib, inactive: -0.038; in assay [5] it was inactive: -0.074; in assay [6] it was inactive: -0.06; with entospletinib, inactive: -0.01.
On to BIRC6 (UniProt Q9NR09), for which the log2 fold change in assay [1] was inactive: 0.035; in assay [2] it was inactive: -0.007; in assay [3] it was inactive: -0.1; in assay [4], inactive: 0.003; with entinostat it was inactive: 0.014; in the assay with vorinostat it was inactive: 0. The log2 fold change with citarinostat was inactive: -0.031; with silmitasertib, inactive: 0.04; in assay [5], inactive: 0.016; in assay [6] it was inactive: 0.055; with entospletinib, inactive: -0.147.
Turning to BORCS5 (UniProt Q969J3), the log2 fold change was inactive: 0.008 in [1]; inactive: 0.017 in [2]; inactive: -0.081 in assay [3]; inactive: -0.037 in [4]; inactive: 0.039 in the assay with entinostat; inactive: -0.152 in the assay with vorinostat. In addition, the log2 fold change with citarinostat was inactive: 0.069; with silmitasertib, inactive: -0.044; in assay [5], inactive: -0.198; in assay [6] it was inactive: 0.032; with entospletinib, inactive: 0.089.
Consider BLMH (UniProt Q13867), for which the log2 fold change in assay [1] is inactive: 0.091; in assay [2] it was inactive: 0.063; in [3] it was inactive: 0.018; in assay [4], inactive: 0.028; in the assay with entinostat, inactive: -0.002; with vorinostat it was inactive: 0.034. Besides, the log2 fold change was inactive: 0.03 with citarinostat; inactive: -0.014 with silmitasertib; inactive: 0.092 in assay [5]; inactive: 0.369 in [6]; inactive: -0.029 with entospletinib.
For the target BNIP2 (UniProt J3KN59), the log2 fold change in assay [1] was inactive: 0.006; in [2], inactive: -0.015; in assay [3] it was inactive: -0.04; in [4], inactive: -0.054; with entinostat, inactive: 0.006; in the assay with vorinostat, inactive: 0. In addition, the log2 fold change in the assay with citarinostat was inactive: 0.073; with silmitasertib, inactive: -0.045; in [5] it was inactive: -0.165; in [6] it was inactive: -0.11; with entospletinib it was inactive: -0.035.
Regarding B4GALT3 (UniProt O60512), the log2 fold change is inactive: -0.089 in assay [1]; inactive: -0.05 in [2]; inactive: -0.013 in assay [3]; inactive: -0.042 in [4]; inactive: -0.034 with entinostat; inactive: 0.067 with vorinostat. Moreover, the log2 fold change was inactive: -0.116 with citarinostat; inactive: -0.051 with silmitasertib; inactive: 0.044 in assay [5]; inactive: -0.025 in [6]; inactive: 0.062 in the assay with entospletinib.
As for BRD3 (UniProt Q15059), the log2 fold change in assay [1] was inactive: 0.008; in assay [2], inactive: -0.026; in assay [3], inactive: 0.017; in assay [4] it was inactive: 0.119; in the assay with entinostat, inactive: -0.123; with vorinostat it was active: -0.663. The figures for the log2 fold change (in the assay with citarinostat; with silmitasertib; in assay [6]) were active: -0.567, inactive: 0.061 and inactive: -0.002, respectively.
For the target BACH1 (UniProt O14867), the log2 fold change is inactive: 0.022 in [1]; inactive: -0.006 in assay [2]; inactive: 0.013 in assay [3]; inactive: 0 in assay [4]; inactive: -0.024 with entinostat; inactive: -0.066 in the assay with vorinostat. In addition, the log2 fold change with citarinostat was inactive: -0.041; in the assay with silmitasertib, inactive: -0.017; in [5], inactive: 0.019; in assay [6] it was inactive: -0.033; with entospletinib, inactive: 0.041.
As to BAX isoform 2 (UniProt Q07812), the log2 fold change in [1] was inactive: -0.005; in assay [2] it was inactive: 0.049; in [3], inactive: -0.016; in assay [4], inactive: -0.006; with entinostat, inactive: 0.002; with vorinostat it was inactive: -0.115. For the same target, the log2 fold change with citarinostat is inactive: -0.035; with silmitasertib, inactive: -0.017; in assay [5], inactive: -0.097; in assay [6] it was inactive: -0.011; with entospletinib, inactive: 0.033.
Turning to BAG2 (UniProt O95816), the log2 fold change is inactive: 0.137 in assay [1]; inactive: 0.057 in assay [2]; inactive: 0.134 in [3]; inactive: 0.067 in assay [4]; inactive: 0.009 in the assay with entinostat; inactive: -0.017 with vorinostat. Moreover, the log2 fold change was inactive: -0.044 in the assay with citarinostat; inactive: 0.112 with silmitasertib; inactive: 0.253 in assay [5]; inactive: -0.147 in assay [6]; inactive: 0.169 with entospletinib.
